The record followed here is PubChem BioAssay AID1347426 (Functional Genomics Laboratory (NCATS/FGL), 2020).

The whole screen tested about 31,000 sequences, of which about 1,400 (4.5%) were called active.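 Rule for the calls: active = median seed-adjusted z-score above 1 or below -1; inactive = the rest.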 This is one part of the list.

This experiment in a line: Novel Modifiers of Survival Motor Neuron (SMN) Protein: Gene Identification via Genome-wide siRNA Screen.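 Note: luminescence tracks full-length SMN protein made from the SMN2 reporter.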 The following applies: HEK293T SMN2-luciferase reporter, siRNA knockdown, 72 h; actives lie on both sides. In outline:
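HEK293T cells stably expressing an SMN2 splicing/cDNA-luciferase reporter were reverse-transfected with a druggable-genome siRNA library and read by luminescence at 72 hours; hits defined by MAD score above 1.0 or below -1.0.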
As for CUCAGAUACUAUUACAACATT against ETV3, the median seed-adjusted z-score was inactive: -0.039.

GAAGCUAAGUUCAUAGGUUTT against GRM3: the median seed-adjusted z-score was inactive: -0.401.

Consider GGCUCUAUGUCGUAGAAAATT against MPZL1, for which the median seed-adjusted z-score is inactive: 0.376.

As to CCUCAGCAAUCAGCAGACATT against FES, the median seed-adjusted z-score is inactive: 0.402.

Regarding GCACAUCGCAGAUCAAAGUTT against PIK3R5, the median seed-adjusted z-score was inactive: 0.799.

Take GAGUGGACAUCAUAGAGAATT against GSTM3: the median seed-adjusted z-score was inactive: -0.66.

For GCCCAGGUCUGUACAGAUATT against ROBO4, the median seed-adjusted z-score is inactive: -0.431.

Consider GAACUGUCACUGUGAGAUATT against EBI3, for which the median seed-adjusted z-score was inactive: -0.206.

Turning to GCAUAGAGGAGAUCUGUGATT against PROC, the median seed-adjusted z-score is inactive: -0.228.

In the case of GCAUCUACUGACUUGAUUUTT against MLF2, the median seed-adjusted z-score was inactive: -0.312.

As to GGUGAAGAAUACCAGCAAATT against ACYP2, the median seed-adjusted z-score was inactive: 0.286.

As for GAAUGGAUUCUGACCUUAUTT against MTO1, the median seed-adjusted z-score was inactive: -0.0252.

Turning to GAAUGCCUUUCAUGAGAAUTT against CYP4A22, the median seed-adjusted z-score is inactive: -0.479.

On to GUACUGUAGAGAAAGCGUATT against ZNF606, for which the median seed-adjusted z-score is inactive: 0.118.

Take GCACUUGGAUCGCAUGAAATT against AHCYL1: the median seed-adjusted z-score is inactive: 0.

In the case of CUAUUACAAUUCCUCGGAATT against TRIM11, the median seed-adjusted z-score was inactive: -0.251.

Take CCAAUACAGGGAUCCUAUATT against PCDHGA4: the median seed-adjusted z-score was inactive: 0.0698.

In the case of CCUGCCCAAGAGUACCUUUTT against EEF1G, the median seed-adjusted z-score was inactive: -0.206.

Consider CAUGCUCUAUUGCUCAGUATT against ALK, for which the median seed-adjusted z-score is inactive: 0.0139.

CAUCUUCACGGUCAACAAATT against TRPM4: the median seed-adjusted z-score was inactive: 0.0519.

Regarding GGAUAGCAAAACAACUAGATT against RB1, the median seed-adjusted z-score was inactive: 0.49.

GCUAUUUACUCAGUCCGUUTT against HELZ: the median seed-adjusted z-score was inactive: 0.0778.

CUCCCUCGGUUAUAAAGAUTT against SLC4A5: the median seed-adjusted z-score was active: 1.3.

As for GGCUAGAAGUCAGCUAUCATT against PPP1R15B, the median seed-adjusted z-score was inactive: -0.407.

Consider GAACUGAUGAAGGUAUUAATT against PARVA, for which the median seed-adjusted z-score is inactive: 0.0852.

With CAAUCGCUAUCAACCGUUATT against GPR50, the median seed-adjusted z-score is inactive: -0.0348.

Regarding GUCAUCAACGGAAACAUAATT against EIF3G, the median seed-adjusted z-score was inactive: -0.198.

Consider GAAAAAGCGUGAAGUCAUATT against GABRA5, for which the median seed-adjusted z-score was inactive: 0.

Take GGGAUUCAAAUGAAAGUGATT against TBC1D22A: the median seed-adjusted z-score is inactive: -0.00192.

Take CCAUAACGGUGGAUGAGUATT against MPPED2: the median seed-adjusted z-score is inactive: 0.418.

For the sequence CCGUCAUGCUGAUACUCUUTT against SOAT2, the median seed-adjusted z-score is inactive: 0.612.

For the sequence GGUAUAAUCUUCGACUCAATT against GRIK2, the median seed-adjusted z-score was inactive: 0.00242.

Consider CUACAGAAGUACAAUCAUUTT against UGP2, for which the median seed-adjusted z-score is inactive: 0.0766.

In the case of GCAGGCGUCUAAAUACUUUTT against DLC1, the median seed-adjusted z-score is inactive: -0.0296.

Turning to CAGUUCGUGUCAACAGGAATT against LYPLA1, the median seed-adjusted z-score was inactive: 0.

Regarding GAGUACGACUGGAACUUAATT against CALR3, the median seed-adjusted z-score is inactive: -0.0828.

Regarding GCUACUACAUGAUUGGUGATT against NNMT, the median seed-adjusted z-score was inactive: -0.095.

With GCACGUUUCCUAAUUGAUATT against CPSF2, the median seed-adjusted z-score is inactive: 0.0263.

For GGCAGUUAAUGGAACAAUUTT against MTMR7, the median seed-adjusted z-score was inactive: -0.207.

GCUGUGAUCUCAUGGAUCATT against KLHL3: the median seed-adjusted z-score was inactive: -0.237.

Consider CCUACAAGCUGGACAACAATT against CPNE6, for which the median seed-adjusted z-score is inactive: -0.528.

As for CACUUGAACAAGAACCAGATT against PCDH17, the median seed-adjusted z-score is inactive: 0.451.

For CCAACCACGCUAUAGUUCATT against BMP5, the median seed-adjusted z-score was inactive: 0.0733.

As for GGCUAUCCACGUGAAGAAATT against GABRG2, the median seed-adjusted z-score was inactive: -0.479.

With GCCUCAAUCAGUAUUCAUATT against SERPINH1, the median seed-adjusted z-score was inactive: 0.186.

On to GCAUUUCAAGGGAUCCGUATT against LRRTM4, for which the median seed-adjusted z-score is inactive: 0.

On to GACGAACCCUUAGUGCUAATT against F9, for which the median seed-adjusted z-score is inactive: 0.332.

With AAAUGUCCCGAAUCGUAUUTT against GABRA5, the median seed-adjusted z-score is inactive: 0.

Regarding GCAUCAGCGCGUUCAUUCATT against ZNF623, the median seed-adjusted z-score is inactive: 0.272.

As for GGAUCACCAGGAAAGAGUATT against ACTR5, the median seed-adjusted z-score was inactive: -0.376.

CCACUAUUGUCAGCCUGCATT against ID2: the median seed-adjusted z-score was inactive: 0.783.

For the sequence GACCUUCAAGAUAGACAUUTT against RAD23B, the median seed-adjusted z-score was inactive: 0.639.

For GCUCUUCGAUCUGAUUGAATT against CLK2, the median seed-adjusted z-score was inactive: -0.0591.

Turning to GUAUCUGCAAUUAUCCAAATT against KCNH7, the median seed-adjusted z-score was inactive: 0.0639.

As for ACAUCGUGCUAAACUCUCATT against BCL6B, the median seed-adjusted z-score is inactive: 0.

On to UAUGGGCUCUUGAACCAAATT against MTNR1B, for which the median seed-adjusted z-score is inactive: -0.393.

Consider GUAUGAUUAUGCUGGGAAATT against COX7A2L, for which the median seed-adjusted z-score was inactive: 0.

On to GGCUACAACAUGACUCGUATT against FZD10, for which the median seed-adjusted z-score is inactive: -0.226.

Regarding GGUAUACAAGGAAAGGUUATT against EIF4E, the median seed-adjusted z-score is inactive: -0.404.

Take GGCUGAAGAGCUACGAGAATT against POR: the median seed-adjusted z-score was inactive: 0.189.

On to GCUCAUACUCUACCACCUATT against SLC1A5, for which the median seed-adjusted z-score was inactive: -0.104.

With AGACAAGUAUGUGAGGAAUTT against BTN2A2, the median seed-adjusted z-score is inactive: -0.0599.

Take CAGAGUAUCUACUGACAAATT against CDADC1: the median seed-adjusted z-score was inactive: 0.544.

Take CCUCUGCCUUGGACACCAUTT against SNCG: the median seed-adjusted z-score is inactive: -0.169.

On to CAGCAGCUAGUGGAAGACATT against ECEL1, for which the median seed-adjusted z-score was inactive: -0.301.

On to GGACUCAUCCGACAGCAUATT against ATF1, for which the median seed-adjusted z-score was inactive: -0.112.

For the sequence GAACAAGGCAUAAACGGCATT against IBSP, the median seed-adjusted z-score is inactive: -0.111.

On to CUUGUGAGUUUAAAACGUATT against HSF2, for which the median seed-adjusted z-score is inactive: -0.0228.

Turning to CGGCUUCCGUUGUUGCAAATT against SLC16A1, the median seed-adjusted z-score was inactive: -0.277.
